The values below come from patent EP4458977A1 (Max-Planck-Gesellschaft zur Förderung der Wissenschaften …, priority 2023, dated 2024).

This data set relates to HeLa cells. Briefly: Confocal laser scanning microscopy and degradation study with PA library and HeLa cells. The data set is classed as cell-based. The settings on record: for Aggregate size after 30 min incubation (d0) / Aggregate size after 3 d incubation (d3): aggregates > 10 µm^2, HeLa cell culture. As to the method:
In general, the procedure for determine whether a PA is degraded or not, is conducted by confocal laser scanning microscopy of Proteostat stained PAs which are added to Hela cells (2 µg peptide added to 20.000 cells). Microscopy is conducted at day 0 (d0, after 30 min of incubation) and at day 3 (d3, after 72 h of incubation). The number of aggregates >10 µm^2 is counted via 3D object counter in imaged in an area of 1008 µm × 1008 µm.
A PA is considered to be degradable if the number and the size of aggregates are reduced after 3 days. The efficiency is determined by the percentual degradation (aggregate number at d3 / aggregate number at d0). For the number of aggregation three technical replicates were evaluated for each sample. A large deviation represents a nonhomogeneous spatial distribution of aggregates.
Confocal laser scanning microscopy and degradation study with PA library and HeLa cells: Confocal laser scanning microscopy studies were performed for the visualization of the cell-PA interaction. HeLa cells were seeded one day prior to conducting the assay (20,000/well) in an 8-well IBIDI slide. […] The nucleus of the HeLa cells was stained with Hoechst 33342 (NucBlue™, Thermo Fisher Scientific). The peptide solution mixture was transferred to the HeLa cells and incubated for 30 min at 37°C before washing three times with PBS. […] For the evaluation of aggregate degradation, the samples were further incubated at 37°C for 3 d and analyzed without any additional washing step. […] The number of aggregates were determined by counting aggregates larger than the threshold 10 µm^2 in an area of 1008 × 1008 µm and repeated in three technical triplicates.

Several values for one entry are separate records, joined by “and”; a condition that tells them apart may be missing. Equal values may be shown once. Some entries repeat one wording, which the source may state once for all of them. Where a SMILES comes first, the peptide text is derived from it. [ ]: non-standard residue; d: D form. The star is where a group is joined. X1 = CC/C=C\C/C=C\C/C=C\C/C=C\C/C=C\CCCC(=O)*; Fmoc = O=C(OCC1c2ccccc2-c2ccccc21)*; Palmitoyl = CCCCCCCCCCCCCCCC(=O)*; Lauroyl = CCCCCCCCCCCC(=O)*; Nonanoyl = CCCCCCCCC(=O)*

As for `CCCCCCCCCCCCCCCC(=O)N[C@H](C(=O)N[C@H](C(=O)N[C@H](C(=O)N[C@@H](C)C(=O)N[C@@H](C)C(=O)N[C@@H](C)C(=O)N[C@@H](CCCCN)C(=O)N[C@@H](CCCCN)C(=O)N[C@@H](CCCCN)C(N)=O)C(C)C)C(C)C)C(C)C` [PA1] (Palmitoyl-VVVAAAKKK-NH2), the “Aggregate size after 30 min incubation (d0)” value (“Aggregate size … (d0)” below) is 28 µm^2 and 36 µm^2.

For the compound `CCCCCCCCCCCC(=O)N[C@H](C(=O)N[C@H](C(=O)N[C@H](C(=O)N[C@@H](C)C(=O)N[C@@H](C)C(=O)N[C@@H](C)C(=O)N[C@@H](CCCCN)C(=O)N[C@@H](CCCCN)C(=O)N[C@@H](CCCCN)C(N)=O)C(C)C)C(C)C)C(C)C` [Pat7] (Lauroyl-VVVAAAKKK-NH2), the “formation of µm-sized PA clusters (Proteostat stained, with HeLa cells)” value (shortened to “formation”) was “formation of µm-sized PA clusters”; the “Aggregate size … (d0)” value was found to be 45 µm^2; the “Aggregate size after 3 d incubation (d3)” value is given as 63 µm^2.

For `CCCCCCCCC(=O)N[C@H](C(=O)N[C@H](C(=O)N[C@H](C(=O)N[C@@H](C)C(=O)N[C@@H](C)C(=O)N[C@@H](C)C(=O)N[C@@H](CCCCN)C(=O)N[C@@H](CCCCN)C(=O)N[C@@H](CCCCN)C(N)=O)C(C)C)C(C)C)C(C)C` [Pat8] (Nonanoyl-VVVAAAKKK-NH2), the “formation” value was “formation of µm-sized PA clusters”; the “Aggregate size … (d0)” value was found to be 32 µm^2; the “Aggregate size after 3 d incubation (d3)” value is on record as 50 µm^2.

Regarding `CC/C=C\C/C=C\C/C=C\C/C=C\C/C=C\CCCC(=O)N[C@H](C(=O)N[C@H](C(=O)N[C@H](C(=O)N[C@@H](C)C(=O)N[C@@H](C)C(=O)N[C@@H](C)C(=O)N[C@@H](CCCCN)C(=O)N[C@@H](CCCCN)C(=O)N[C@@H](CCCCN)C(N)=O)C(C)C)C(C)C)C(C)C` [Pat10] (X1-VVVAAAKKK-NH2), the “average size of aggregates” value is 6 µm^2; the “formation” value was “formation of µm-sized PA clusters”; the “Aggregate size … (d0)” value is given as 21 µm^2; the “Aggregate size after 3 d incubation (d3)” value is recorded as 17 µm^2.

Turning to `CC(C)[C@H](NC(=O)OCC1c2ccccc2-c2ccccc21)C(=O)N[C@H](C(=O)N[C@H](C(=O)N[C@@H](C)C(=O)N[C@@H](C)C(=O)N[C@@H](C)C(=O)N[C@@H](CCCCN)C(=O)N[C@@H](CCCCN)C(=O)N[C@@H](CCCCN)C(N)=O)C(C)C)C(C)C` [Pat12] (Fmoc-VVVAAAKKK-NH2), the “formation” value is “formation of µm-sized PA clusters”; the “Aggregate size … (d0)” value was found to be 111 µm^2; the “Aggregate size after 3 d incubation (d3)” value is given as 65 µm^2.

As for `CCCCCCCCCCCCCCCC(=O)N[C@@H](C(=O)N[C@@H](C(=O)N[C@@H](C(=O)N[C@H](C)C(=O)N[C@H](C)C(=O)N[C@H](C)C(=O)N[C@H](CCCCN)C(=O)N[C@H](CCCCN)C(=O)N[C@H](CCCCN)C(N)=O)C(C)C)C(C)C)C(C)C` [Pat14, C16-vvvaaakkk-NH2] (Palmitoyl-[dV][dV][dV][dA][dA][dA][dK][dK][dK]-NH2), the “formation” value is “formation of µm-sized PA clusters”; the “Aggregate size … (d0)” value is reported as 71 µm^2; the “Aggregate size after 3 d incubation (d3)” value is on record as 30 µm^2.

Take `CCCCCCCCCCCCCCCC(=O)N[C@H](C(=O)N[C@H](C(=O)N[C@@H](CCC(N)=O)C(=O)N[C@@H](CCCCN)C(=O)N[C@H](C(=O)N[C@@H](CCCCN)C(N)=O)[C@@H](C)CC)[C@@H](C)CC)[C@@H](C)CC` [Pat15, C16-IIQKIK-NH2] (Palmitoyl-IIQKIK-NH2): the “formation” value was “formation of µm-sized PA clusters”; the “Aggregate size … (d0)” value worked out at 41 µm^2; the “Aggregate size after 3 d incubation (d3)” value amounted to 23 µm^2.

For the compound `CCCCCCCCCCCCCCCC(=O)N[C@@H](C)C(=O)N[C@@H](CCC(N)=O)C(=O)N[C@@H](C)C(=O)N[C@@H](CCCCN)C(=O)N[C@@H](C)C(=O)N[C@@H](CCCCN)C(N)=O` [Pat16, C16-AQAKAK-NH2] (Palmitoyl-AQAKAK-NH2), the “formation” value is recorded as “formation of µm-sized PA clusters”; the “Aggregate size … (d0)” value is 25 µm^2; the “Aggregate size after 3 d incubation (d3)” value was 28 µm^2.

In the case of `CCCCCCCCCCCCCCCC(=O)N[C@@H](Cc1c[nH]c2ccccc12)C(=O)N[C@@H](CCC(=O)O)C(=O)N[C@@H](C)C(=O)N[C@@H](CC(C)C)C(=O)N[C@@H](CCCCN)C(=O)N[C@@H](CCCCN)C(N)=O` [Pat17, C16-WEALKK-NH2] (Palmitoyl-WEALKK-NH2), the “formation” value was “no formation of µm-sized PA clusters”.

For `CCCCCCCCCCCCCCCC(=O)N[C@@H](C)C(=O)NCC(=O)NCC(=O)N[C@@H](CCCNC(=N)N)C(=O)N[C@H](C(=O)N[C@@H](CCCCN)C(N)=O)C(C)C` [Pat18, C16-AGGRVK-NH2] (Palmitoyl-AGGRVK-NH2), the “formation” value is “no formation of µm-sized PA clusters”.

On to `CCCCCCCCCCCCCCCC(=O)N[C@@H](CC(C)C)C(=O)N[C@@H](CC(N)=O)C(=O)NCC(=O)NCC(=O)N[C@H](C(=O)N[C@@H](CCCCN)C(=O)N[C@@H](CCCCN)C(N)=O)C(C)C` [Pat19, C16-LNGGVKK-NH2] (Palmitoyl-LNGGVKK-NH2), for which the “formation” value was “formation of µm-sized PA clusters”; the “Aggregate size … (d0)” value is recorded as 76 µm^2; the “Aggregate size after 3 d incubation (d3)” value is on record as 40 µm^2.

On to `CCCCCCCCCCCCCCCC(=O)N[C@@H](C)C(=O)N[C@@H](CC(C)C)C(=O)N[C@@H](C)C(=O)N[C@@H](C)C(=O)NCC(=O)N[C@@H](CCCCN)C(=O)N[C@@H](CCCCN)C(N)=O` [Pat20, C16-ALAAGKK-NH2] (Palmitoyl-ALAAGKK-NH2), for which the “formation” value is “formation of µm-sized PA clusters”; the “Aggregate size … (d0)” value was 38 µm^2; the “Aggregate size after 3 d incubation (d3)” value amounted to 45 µm^2.

On to `CCCCCCCCCCCCCCCC(=O)N[C@@H](C)C(=O)N[C@H](C(=O)N[C@@H](C)C(=O)N[C@@H](CCCCN)C(=O)N[C@@H](CCCCN)C(=O)N[C@@H](CCCCN)C(N)=O)C(C)C` [Pat21, C16-AVAKKK-NH2] (Palmitoyl-AVAKKK-NH2), for which the “Aggregate size … (d0)” value was determined as 39 µm^2 and the “Aggregate size after 3 d incubation (d3)” value amounted to 47 µm^2.

Take `CCCCCCCCCCCCCCCC(=O)N[C@@H](CC(C)C)C(=O)N[C@@H](CC(C)C)C(=O)N[C@@H](CC(C)C)C(=O)N[C@@H](CCCCN)C(=O)N[C@@H](CCCCN)C(N)=O` [Pat23, C16-LLLKK-NH2] (Palmitoyl-LLLKK-NH2): the “formation” value is on record as “formation of µm-sized PA clusters”; the “Aggregate size … (d0)” value is listed as 71 µm^2; the “Aggregate size after 3 d incubation (d3)” value is given as 60 µm^2.

As to `CCCCCCCCCCCCCCCC(=O)N[C@H](C(=O)N[C@H](C(=O)N[C@@H](C)C(=O)N[C@@H](C)C(=O)N[C@@H](Cc1c[nH]cn1)C(=O)N[C@@H](Cc1c[nH]cn1)C(=O)N[C@@H](Cc1c[nH]cn1)C(N)=O)C(C)C)C(C)C` [Pat24, C16-VVAAHHH-NH2] (Palmitoyl-VVAAHHH-NH2), the “Aggregate size … (d0)” value worked out at 169 µm^2 and the “Aggregate size after 3 d incubation (d3)” value is given as 283 µm^2.
